Chains of the proteins cited; added tags and fusions are not shown.
UniProt P08670: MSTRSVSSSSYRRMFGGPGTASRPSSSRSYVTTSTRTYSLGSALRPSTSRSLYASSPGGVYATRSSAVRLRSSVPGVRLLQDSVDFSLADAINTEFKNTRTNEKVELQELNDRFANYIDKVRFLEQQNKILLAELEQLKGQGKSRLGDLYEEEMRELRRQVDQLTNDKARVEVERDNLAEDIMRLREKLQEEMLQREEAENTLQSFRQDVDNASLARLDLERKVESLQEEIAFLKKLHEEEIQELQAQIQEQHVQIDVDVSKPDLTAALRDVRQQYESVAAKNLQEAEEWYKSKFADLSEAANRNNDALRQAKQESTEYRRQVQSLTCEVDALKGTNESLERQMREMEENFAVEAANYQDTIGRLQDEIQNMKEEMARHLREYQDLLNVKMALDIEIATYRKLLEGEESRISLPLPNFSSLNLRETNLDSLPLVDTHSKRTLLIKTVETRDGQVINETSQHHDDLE

In article PMC10775674:

Target: T1, HA-NEURL3 (neuralized E3 ubiquitin protein ligase 3, HA-tagged) (UniProt Q96EH8)
T1 sequence: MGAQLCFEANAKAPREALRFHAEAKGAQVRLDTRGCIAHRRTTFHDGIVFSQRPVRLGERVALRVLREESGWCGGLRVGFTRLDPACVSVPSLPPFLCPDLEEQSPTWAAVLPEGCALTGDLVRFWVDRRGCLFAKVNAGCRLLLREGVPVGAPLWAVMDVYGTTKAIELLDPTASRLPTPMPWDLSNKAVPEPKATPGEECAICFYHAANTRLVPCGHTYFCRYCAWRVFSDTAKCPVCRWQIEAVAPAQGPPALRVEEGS
Experiment: affinity purification with mass spectrometry; HA immunoprecipitates from SUNE1 cells transfected with HA-NEURL3 plasmid; SDS-PAGE, silver staining, differential bands analysed by mass spectrometry

binding: binds
Substance: endogenous Vimentin (from UniProt P08670 1-466)

These are yes or no findings as the source states them, for the method shown. In cells and extracts the contact can be indirect. Here binding means that the protein was enriched with, or labelled near, the bait; the list need not be complete. Sequences can lack the tags named with a protein.
